## Results of single-concentration screens

T. brucei: 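Whole-parasite assay of Trypanosoma brucei over 72 hours; the read-out is not stated. Compounds at 30 µM. The record gives no direction; compounds that gave an IC50 in retests scored well above the rest, so higher reads as stronger inhibition. Values scatter widely below zero; nearly all retest evidence comes from the higher of the two concentrations used. Size under these conditions: about 64,000 compounds, about 940 of them at 50% or above in at least one test.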
Leishmania in macrophages: 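Cell assay of Leishmania donovani living inside macrophages; the read-out is not stated. Tested at 30 µM. Higher reads as stronger inhibition (inferred: compounds with an IC50 in retests scored well above the rest). Size under these conditions: about 69,000 compounds, about 1,000 of them at 50% or above in at least one test.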

Each number is a percent effect as filed.
The controls that fix the scale are not given in the record; negative values are as filed.
Compounds were drawn at random from those tested, without regard to their results.

- Cc1ccc(Cl)c(NC(=O)c2cccc(CN3CC[C@H](O)C3)c2)c1 : Leishmania in macrophages: 5.44%
- COc1ccc(/C=C/CN2CCC3(CC2)CN(C)C(=O)O3)cc1 : T. brucei: 8.23%; Leishmania in macrophages: 11.43%
- O=C(O)C(F)(F)F.[H][C@]12CC(=O)N(CC3CC3)[C@@]1([H])CCN2Cc1ccccn1 : T. brucei: -15.99%; Leishmania in macrophages: 27.36%
- O=C(Nc1nncs1)c1ccc(O)nc1 : T. brucei: -45%; Leishmania in macrophages: 16.66%
- Cc1cc(C(=O)N(C)Cc2cccs2)nc(N2CCOCC2)n1 : T. brucei: -18.59%; Leishmania in macrophages: -60.97%
- CN(C)CC(C)(O)CNC(=O)Nc1sc2ccccc2c1Cl (stereo not drawn) : T. brucei: 103.3%; Leishmania in macrophages: 53.76%
- CCC(CC)C(=O)N1CCOC2(COCCN(CC(=O)NC)C2)C1.O=C(O)C(F)(F)F (stereo not drawn) : T. brucei: -29.69%; Leishmania in macrophages: 43.1%
- Cc1cc(NC(=O)Cn2ccc(=O)c3ccccc32)[nH]n1 : T. brucei: 6.755%; Leishmania in macrophages: 28.97%
- CN1CCCN(c2nccc(-c3c[nH]nc3C3CCCCC3)n2)CC1 : T. brucei: 98.42%; Leishmania in macrophages: 47.19%
- Cc1cc(NCCCc2c(C)noc2C)nc(N)n1 : T. brucei: 18.21%; Leishmania in macrophages: 2.222%
- Cc1cc(C)c2c(N(C)CC3CCOC3)ncnc2n1 (stereo not drawn) : T. brucei: -68.29%; Leishmania in macrophages: 23.1%
- CCN(CCOC)C(=O)c1ccc2c(c1)nc(N1CC[C@H](O)C1)n2C : T. brucei: -65.81%; Leishmania in macrophages: 20.98%
- Cc1ccc(CN2CCn3c(COc4cccnc4)cnc3C2C)o1.O=C(O)C(F)(F)F.O=C(O)C(F)(F)F (stereo not drawn) : T. brucei: 0.9699%; Leishmania in macrophages: -4.64%
- CC(NCc1ccccn1)c1ccc(N2CCN(C)CC2)c(F)c1 (stereo not drawn) : T. brucei: -56.08%; Leishmania in macrophages: 6.909%
- [H][C@@]12CCN(c3ccc(C)nn3)C[C@]1(C(=O)NCC1CC1)CCO2 : T. brucei: 8.072%; Leishmania in macrophages: 22.06%
- [H][C@@]12CS(=O)(=O)C[C@]1([H])NCCN2c1ccnc(N(C)CCN2CCCC2)n1 : T. brucei: 4.975%; Leishmania in macrophages: -4.983%
- O=C(O)C(F)(F)F.O=C(O)C(F)(F)F.[H][C@@]12CN(C(=O)c3ccnnc3)C[C@]1([H])OCCN2CCN1CCCC1 : Leishmania in macrophages: -34.42%
- CCOCC1CN(S(=O)(=O)Cc2ccccc2)Cc2nccn2C1 (stereo not drawn) : T. brucei: 1.891%; Leishmania in macrophages: 2.738%
- [H][C@@]12CNC[C@]1([H])[C@H]2CN1CCC(c2nnc(CN(C)CCO)n2C)CC1 : T. brucei: -8.869%; Leishmania in macrophages: 1.973%
- Cc1cccc(C)c1-n1nnnc1C1(NCc2ccco2)CCCC1 : T. brucei: -14.67%; Leishmania in macrophages: 3.129%
- COCc1cccc(NC(C(N)=O)c2ccc(Br)cc2)c1 (stereo not drawn) : T. brucei: -44.58%; Leishmania in macrophages: -0.886%
- O=C(O)C(F)(F)F.[H][C@@]12COC[C@]1(c1nnc(C)o1)CN(Cc1nccs1)C2 : T. brucei: -30.22%; Leishmania in macrophages: 6.255%
- O=C(c1cnc(Nc2ccccc2)nc1)N1CCC(O)(CO)CC1 : T. brucei: -26.78%; Leishmania in macrophages: -16.52%
- COC(=O)N1CC2=CC(C)(C)COc3ccc(OC)c(c32)C1 : T. brucei: -40.95%; Leishmania in macrophages: -13.37%
- CC(C)Cc1noc(CN2CCN(C(=O)c3ccco3)CC2)n1 : T. brucei: -5.916%; Leishmania in macrophages: 11.22%
- Cc1cccc(C(=O)NCC(O)c2ccc(F)cc2F)c1 (stereo not drawn) : T. brucei: -13.01%; Leishmania in macrophages: 13.69%
- Cc1cccc(NCc2nn(C)c(=O)[nH]2)c1 : T. brucei: 0.1487%; Leishmania in macrophages: 25.18%
- CCn1c(CC2CCN(C(=O)c3cc(C(C)C)nn3C)CC2)n[nH]c1=O : Leishmania in macrophages: 4.237%
- Cl.Fc1ccc(-c2cnc(C3CCCN3)cn2)cc1 (stereo not drawn) : T. brucei: 19.97%; Leishmania in macrophages: 6.612%
- CC(C)[C@H](NC(=O)NC1CCS(=O)(=O)C1)C(=O)NCc1ccc(Cl)cc1 (stereo partly drawn) : T. brucei: -32.07%; Leishmania in macrophages: 7.593%
- COCCc1nnc(NC(=O)Cc2ccccc2Cl)o1 : T. brucei: 5.443%; Leishmania in macrophages: -15.77%
- Cc1nc(CNc2cccc(Cl)c2Cl)cs1 : T. brucei: 13.05%; Leishmania in macrophages: 13.92%
- Cc1noc(C2CCCN(C(=O)c3scnc3Cl)C2)n1 (stereo not drawn) : T. brucei: -15.3%; Leishmania in macrophages: -8.122%
- O=C(NCCc1nc(-c2cccnc2)no1)c1ccc(C2CCCO2)s1 (stereo not drawn) : T. brucei: -2.209%; Leishmania in macrophages: 6.946%
- COc1ccc(CC(=O)N2CC[C@H](CO)[C@H](O)C2)c(OC)c1 : T. brucei: -26.76%; Leishmania in macrophages: 21.1%
- COCCCOc1ccc(C(=O)N(C)CCC(C)C)cn1 : T. brucei: 5.794%; Leishmania in macrophages: -8.604%
- COc1nccnc1N1CCC2(CC1)C(=O)N(C)c1ccccc12 : T. brucei: 14.29%; Leishmania in macrophages: -2.544%
- Cc1cccc(C(=O)NCc2ccc(OCCN(C)C)cc2)c1C : T. brucei: -32.09%; Leishmania in macrophages: -0.05439%

4 of the entries, repeated:

Compound	T. brucei	Leishmania in macrophages
Cc1cccc(C(=O)NCc2ccc(OCCN(C)C)cc2)c1C	-32.09%	-0.05439%
Cc1cc(NC(=O)Cn2ccc(=O)c3ccccc32)[nH]n1	6.755%	28.97%
CCN(CCOC)C(=O)c1ccc2c(c1)nc(N1CC[C@H](O)C1)n2C	-65.81%	20.98%
Cc1cc(NCCCc2c(C)noc2C)nc(N)n1	18.21%	2.222%

Source: ChEMBL document CHEMBL3988442, “University of Dundee, Small-Polar-MMV Screening Library” (2021).